From paper PMC7042713
No constants are given. Whether binding was seen depends on the method and setting. In cells and extracts the contact can be indirect. A yes stands for co-enrichment or nearness to the bait. Other partners may have been found. Where a sequence is shown, tags or fusion partners need not be part of it. Values belong to the binder of their own block, whether it stands above or below them.

Assays:
Assay in all cases: affinity purification with mass spectrometry; SOK-YFP captured with anti-GFP MicroBeads from extracts of transgenic Arabidopsis seedling roots (0.05 M Tris-HCl pH 7.5, 0.15 M NaCl, NP40); non-transgenic Col-0 as control; 3 replicates; nanoLC-MS/MS
[1] = molecular target: T1, SOK2-YFP (AtSOK2 fused to YFP, expressed from the RPS5A promoter) (Arabidopsis thaliana) (UniProt Q9LX14)
T1 sequence: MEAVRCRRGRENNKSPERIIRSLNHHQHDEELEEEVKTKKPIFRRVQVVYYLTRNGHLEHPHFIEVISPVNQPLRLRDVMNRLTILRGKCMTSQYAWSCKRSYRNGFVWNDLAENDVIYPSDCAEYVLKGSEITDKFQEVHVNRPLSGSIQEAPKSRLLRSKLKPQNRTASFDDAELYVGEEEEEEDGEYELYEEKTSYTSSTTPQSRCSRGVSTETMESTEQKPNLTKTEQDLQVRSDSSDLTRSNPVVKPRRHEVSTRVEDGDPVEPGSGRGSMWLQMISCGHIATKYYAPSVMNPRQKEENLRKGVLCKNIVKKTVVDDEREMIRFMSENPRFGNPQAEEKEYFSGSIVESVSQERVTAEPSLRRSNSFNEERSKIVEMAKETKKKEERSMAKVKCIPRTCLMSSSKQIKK

[2] = molecular target: T2, SOK3-YFP (AtSOK3 fused to YFP, expressed from the RPS5A promoter) (Arabidopsis thaliana) (UniProt Q8GYT8)
T2 sequence: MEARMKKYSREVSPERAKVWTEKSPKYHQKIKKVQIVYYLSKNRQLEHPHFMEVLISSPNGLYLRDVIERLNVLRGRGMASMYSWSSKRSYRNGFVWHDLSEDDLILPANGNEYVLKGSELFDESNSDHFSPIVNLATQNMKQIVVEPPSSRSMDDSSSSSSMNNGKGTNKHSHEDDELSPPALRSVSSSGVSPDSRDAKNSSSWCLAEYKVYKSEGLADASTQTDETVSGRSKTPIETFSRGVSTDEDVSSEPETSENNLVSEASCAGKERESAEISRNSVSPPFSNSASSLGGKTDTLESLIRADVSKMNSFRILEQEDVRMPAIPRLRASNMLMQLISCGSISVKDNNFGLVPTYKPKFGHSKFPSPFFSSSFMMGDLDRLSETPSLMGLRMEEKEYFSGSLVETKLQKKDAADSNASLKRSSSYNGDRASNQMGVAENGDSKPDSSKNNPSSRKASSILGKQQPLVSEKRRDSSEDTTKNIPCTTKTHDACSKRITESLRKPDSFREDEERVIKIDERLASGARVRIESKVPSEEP

[3] = molecular target: T3, SOK1-YFP (AtSOK1 fused to YFP, expressed from the RPS5A promoter) (Arabidopsis thaliana) (UniProt Q9SYJ8)
T3 sequence: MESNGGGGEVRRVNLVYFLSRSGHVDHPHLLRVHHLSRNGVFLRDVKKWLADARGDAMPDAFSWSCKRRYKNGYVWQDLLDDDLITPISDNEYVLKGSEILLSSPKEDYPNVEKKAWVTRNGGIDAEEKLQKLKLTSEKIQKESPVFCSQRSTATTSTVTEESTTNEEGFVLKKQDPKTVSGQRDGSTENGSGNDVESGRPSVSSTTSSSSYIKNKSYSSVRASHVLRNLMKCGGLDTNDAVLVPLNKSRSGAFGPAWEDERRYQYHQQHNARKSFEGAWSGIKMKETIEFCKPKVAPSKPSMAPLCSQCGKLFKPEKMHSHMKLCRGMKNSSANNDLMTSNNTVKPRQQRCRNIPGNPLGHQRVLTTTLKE

binding [1]: binds
binding [2]: binds
binding [3]: binds
B1: ANGUSTIFOLIA (endogenous) (protein, UniProt O23702 1-636)
chain: MSKIRSSATMPHRDQPSPASPHVVTLNCIEDCALEQDSLAGVAGVEYVPLSRIADGKIESATAVLLHSLAYLPRAAQRRLRPHQLILCLGSADRAVDSTLAADLGLRLVHVDTSRAEEIADTVMALILGLLRRTHLLSRHALSASGWLGSLQPLCRGMRRCRGMVLGIVGRSVSARYLASRSLAFKMSVLYFDVPEGDEERIRPSRFPRAARRMDTLNDLLAASDVISLHCALTNDTVQILNAECLQHIKPGAFLVNTGSCQLLDDCAVKQLLIDGTIAGCALDGAEGPQWMEAWVKEMPNVLILPRSADYSEEVWMEIREKAISILHSFFLDGVIPSNTVSDEEVEESEASEEEEQSPSKHEKLAIVESTSRQQGESTLTSTEIVRREASELKESLSPGQQHVSQNTAVKPEGRRSRSGKKAKKRHSQQKYMQKTDGSSGLNEESTSRRDDIAMSDTEEVLSSSSRCASPEDSRSRKTPLEVMQESSPNQLVMSSKKFIGKSSELLKDGYVVALYAKDLSGLHVSRQRTKNGGWFLDTLSNVSKRDPAAQFIIAYRNKDTVGLRSFAAGGKLLQINRRMEFVFASHSFDVWESWSLEGSLDECRLVNCRNSSAVLDVRVEILAMVGDDGITRWID

binding [1]: binds
B2: AtSOK3 (endogenous SOSEKI3) (protein, UniProt Q8GYT8 1-540)
chain: T2 sequence

binding [3]: binds
B3: AtSOK4 (endogenous SOSEKI4) (protein, UniProt Q8GY65 1-343)
chain: MALVSSRATQDSKPSRERIVPVVYYLSRNGRLDHPHFIEVPLSSHNGLYLKDVINRLNDLRGNGMACLYSWSSKRTYKNGFVWYDLSDEDFIFPVHGQEYVLKGSQILDLDNNSGNFSAVTHRRNQSWSSVDHYKVYKASELNAEATRKLSMDASTQTDDRRRRKSPVDEVNEVTELSREEITSPPQSDSSPETLESLMRADGRLILLQEDQELNRTVEKMRPSAVLMQLISCGAMSFKKCGPTLMNGNTRSTAVRGTGNYRLERAEKELKSFGRVKLEEKEYFSGSLIDESSKKELVPALKRSSSYNIDRSSRMGLTKEKEGEELARANFIPRNPNSVVGQP
